Here are results for 42 sequences from paper PMC7819943, “Rice protein-binding microarrays: a tool to detect cis-acting elements near promoter regions in rice”.

Sequences of proteins named here, by UniProt entry; tags and fusion partners are left off.
UniProt Q0JBA9, entry or part of it: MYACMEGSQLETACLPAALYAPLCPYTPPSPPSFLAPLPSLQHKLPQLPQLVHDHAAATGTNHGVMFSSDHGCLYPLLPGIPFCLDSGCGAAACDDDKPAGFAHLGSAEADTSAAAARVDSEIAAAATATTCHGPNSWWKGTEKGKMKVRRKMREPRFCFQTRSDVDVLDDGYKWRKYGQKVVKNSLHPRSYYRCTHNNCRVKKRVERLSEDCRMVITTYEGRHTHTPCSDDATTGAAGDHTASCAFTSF

The other results are listed elsewhere or left out.

This assay has as its target OsWRKY34 (Oryza sativa, UniProt Q0JBA9 1-250). Put plainly: protein-binding microarray (RPBM); PBS, 2% BSA, 51.3 ng/ul salmon testes DNA, 50 uM zinc acetate, 200 nM TF, 25 C, 1 h; high values mean tight binding. The following applies: protein: recombinant; tags: N-terminal polyhistidine and DsRed monomer fusion (pET32a); label: CyDye5-dUTP incorporated in the synthesized complementary strand; 3' TTTTT single-stranded linker to array surface; dsDNA, one strand shown. The procedure, abridged: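 The binding signal for each feature is its fluorescence intensity in arbitrary units. An Axon 4000B scanner was used to read a custom Agilent array that had been made double-stranded with Cy5-dUTP primer extension, blocked with 2% BSA, incubated at 25 °C for 1 h with 200 nM protein in PBS, 2% BSA, salmon testes DNA and 50 µM zinc acetate, and washed. The protein was an N-terminal polyhistidine–DsRed transcription factor fusion from E. coli BL21-CodonPlus, purified on Ni–NTA.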
Consider “CTCAGCGCCATTCCATCTTGCATTGACCTATGCCGGCTCACGGAGTCACCTAGTGCAG”, for which the binding signal is 10600 fluorescence intensity (a.u.).

Regarding “TGATACTTGGCAGGCGTCGTCTCCAAATACCTGACCACTTCGGAGTCACCTAGTGCAG”, the binding signal was 8290 fluorescence intensity (a.u.).

“GCTCTCTCTCTCATGCCGCAACCGACGAATCCCGGCACATCGGAGTCACCTAGTGCAG”: the binding signal was 9330 fluorescence intensity (a.u.).

For the sequence “CTCGCGTGCGTGTGTGTTGTGCTTTCCAGTGATCTCGCCGCGGAGTCACCTAGTGCAG”, the binding signal was 9710 fluorescence intensity (a.u.).

On to “TTTTGAGGTGGTTTTGTAATTTTTCCAGAATTAATTTTGTCGGAGTCACCTAGTGCAG”, for which the binding signal is 9090 fluorescence intensity (a.u.).

Consider “CACGCGCCGCCGCCGCCGCCGCCGGACCTCCTCCCCACCCCGGAGTCACCTAGTGCAG”, for which the binding signal is 8760 fluorescence intensity (a.u.).

Take “CCGACACCCTCGCCAATCCCGTCGTGCTCACCGCCGGCCACGGAGTCACCTAGTGCAG”: the binding signal is 8900 fluorescence intensity (a.u.).

With “ACTTAGCTGCTCATTGAGCATACCTGATTTTGGTATTTTTCGGAGTCACCTAGTGCAG”, the binding signal is 8360 fluorescence intensity (a.u.).

With “TTGACACTGAACGATACTCCAGGTTTGATGATCCACTTGACGGAGTCACCTAGTGCAG”, the binding signal is 9060 fluorescence intensity (a.u.).

In the case of “GAAATTAATTTAGCTCTACATCCGTTCTGTTTATGAATAACGGAGTCACCTAGTGCAG”, the binding signal is 8380 fluorescence intensity (a.u.).

Regarding “CTGATATCTTGAGCCACTTGTTGCTGCCACTCTGCCATAACGGAGTCACCTAGTGCAG”, the binding signal is 10000 fluorescence intensity (a.u.).

With “GTCCCCACCACCACCACCTCCTCCCCGGCGCCGTCCTACACGGAGTCACCTAGTGCAG”, the binding signal was 10200 fluorescence intensity (a.u.).

For “ATGCCTAATTAATAGATAACTGTCATGTCGCATCCTTCTTCGGAGTCACCTAGTGCAG”, the binding signal was 8280 fluorescence intensity (a.u.).

With “GCTTAATAAATTCGTCTCGCGGTTTAATGTTGGATTCTGTCGGAGTCACCTAGTGCAG”, the binding signal was 9350 fluorescence intensity (a.u.).

In the case of “ATAGAAGTTCGGATTGGGTTTCGTTCTTTTCTTCTTCTTTCGGAGTCACCTAGTGCAG”, the binding signal is 10400 fluorescence intensity (a.u.).

With “ATACTGTTTTTTTTGTTATTTATAAATTTTGTTTTTTTTCCGGAGTCACCTAGTGCAG”, the binding signal is 12300 fluorescence intensity (a.u.).

Turning to “TTTTTCCAAACACCTTGCATGCAACACGATCTCGTCGATCCGGAGTCACCTAGTGCAG”, the binding signal was 8290 fluorescence intensity (a.u.).

Consider “GGACATGTTATGTGGTGGGTCCTGCCGAGATTTAGTCAACCGGAGTCACCTAGTGCAG”, for which the binding signal is 8330 fluorescence intensity (a.u.).

For the sequence “CCTACTTAATCCTTCATTAGCAAATATTTACTGTAGCAACCGGAGTCACCTAGTGCAG”, the binding signal is 8510 fluorescence intensity (a.u.).

Consider “AGGCACGACGGCCCATTGTGTTTCTCCATGGAAAAAGTATCGGAGTCACCTAGTGCAG”, for which the binding signal was 8870 fluorescence intensity (a.u.).

For the sequence “GCTTGTTTTTTCGATTACTTATAATTCACTAATTGAATTTCGGAGTCACCTAGTGCAG”, the binding signal was 8080 fluorescence intensity (a.u.).

Take “GCTAGTTCATGGACGGTAAAAACCTACTCTTATTTACCTTCGGAGTCACCTAGTGCAG”: the binding signal is 8210 fluorescence intensity (a.u.).

“AGTTGAGGGACCTTGCGTGTACTTTTCCCTTTATTTTCTCCGGAGTCACCTAGTGCAG”: the binding signal was 8580 fluorescence intensity (a.u.).

Consider “CCACCTTTGCCTCGTCGTCTCAATCGCCTTCGTCGGCCGTCGGAGTCACCTAGTGCAG”, for which the binding signal was 8370 fluorescence intensity (a.u.).

With “ACTCACTTTTCCCCAGCTTTTCCGCGCTTAATTTCTCGACCGGAGTCACCTAGTGCAG”, the binding signal is 12200 fluorescence intensity (a.u.).

As for “GATGGTTCTATCGATATTTTGCAATGAGACTGTCATAAAACGGAGTCACCTAGTGCAG”, the binding signal was 12100 fluorescence intensity (a.u.).

For “ATTTCCTTCGCCGCCGCCGCCGGCTTCGTCTTCTTCCCCGCGGAGTCACCTAGTGCAG”, the binding signal is 9250 fluorescence intensity (a.u.).

Regarding “TTTATATCTCTGTAATTATGTGTTTCTTCTGATCTGGAATCGGAGTCACCTAGTGCAG”, the binding signal is 9240 fluorescence intensity (a.u.).

Consider “CCTACTGACTACGCTCTACTTTTCTTTGTCCTTGGAGAATCGGAGTCACCTAGTGCAG”, for which the binding signal was 8900 fluorescence intensity (a.u.).

Consider “GGGCAGTGTTATTTACAATACTCCAGGTCAACGCTCACAGCGGAGTCACCTAGTGCAG”, for which the binding signal was 8170 fluorescence intensity (a.u.).

With “TTCTTTATTGAGGGTACTTGATTTGTCGATATATATTTATCGGAGTCACCTAGTGCAG”, the binding signal is 9020 fluorescence intensity (a.u.).

As for “GCTTGTATATCCTCGATCTTGTAATTGACCCGAGAGTTTTCGGAGTCACCTAGTGCAG”, the binding signal was 10100 fluorescence intensity (a.u.).

Regarding “CTTTGGGCAGAATTCTTCTTCTCTCTCGCGCGGCCCAAGTCGGAGTCACCTAGTGCAG”, the binding signal is 10800 fluorescence intensity (a.u.).

For “CTAGTATTACTTTTGTATCTAAATTTGGGCTAGGGATTATCGGAGTCACCTAGTGCAG”, the binding signal is 8140 fluorescence intensity (a.u.).

With “CATCGCGGTGGGGCCCACCTGTCAGCCACAGCCCCGACGACGGAGTCACCTAGTGCAG”, the binding signal is 8240 fluorescence intensity (a.u.).

For the sequence “TTGCGTTTTGGGTGGTGAATTTTGATTTTGATTCTTTTTTCGGAGTCACCTAGTGCAG”, the binding signal is 12700 fluorescence intensity (a.u.).

For the sequence “AATGTATTCTCCGTTTAGGATTATTTTTATGTCCTCTTTGCGGAGTCACCTAGTGCAG”, the binding signal is 9620 fluorescence intensity (a.u.).

On to “GCCTATGATCAGTATACATGACCATCCTTCATGGCCATCTCGGAGTCACCTAGTGCAG”, for which the binding signal was 8860 fluorescence intensity (a.u.).

In the case of “ATCTCTCCGCCGCTCACTACCCTCTTGTTGACCACCGCTCCGGAGTCACCTAGTGCAG”, the binding signal was 14000 fluorescence intensity (a.u.).

For “ACATGCCCTAATTTTATGAGTTAGAGCTCTACGTGCTCTTCGGAGTCACCTAGTGCAG”, the binding signal is 9170 fluorescence intensity (a.u.).

“TCATTTTTATATTTTTCCTAAGTGTTATAATACTCTGTTTCGGAGTCACCTAGTGCAG”: the binding signal is 8350 fluorescence intensity (a.u.).

In the case of “GGATAGTTCGTGCATGTAGTGTGGGTGTTTAGGGCATATACGGAGTCACCTAGTGCAG”, the binding signal was 9130 fluorescence intensity (a.u.).
